Experimental findings from article PMC8917357 are described below.

These are yes or no findings as the source states them, for the method shown. Binding seen in cells or lysates may run through a third protein. A result given as binding can be weak or reduced; the word gives no strength.

Experiment [1] has as its target T1, Ada2b-PA (Drosophila melanogaster) (UniProt Q8I8V0).
T1 sequence: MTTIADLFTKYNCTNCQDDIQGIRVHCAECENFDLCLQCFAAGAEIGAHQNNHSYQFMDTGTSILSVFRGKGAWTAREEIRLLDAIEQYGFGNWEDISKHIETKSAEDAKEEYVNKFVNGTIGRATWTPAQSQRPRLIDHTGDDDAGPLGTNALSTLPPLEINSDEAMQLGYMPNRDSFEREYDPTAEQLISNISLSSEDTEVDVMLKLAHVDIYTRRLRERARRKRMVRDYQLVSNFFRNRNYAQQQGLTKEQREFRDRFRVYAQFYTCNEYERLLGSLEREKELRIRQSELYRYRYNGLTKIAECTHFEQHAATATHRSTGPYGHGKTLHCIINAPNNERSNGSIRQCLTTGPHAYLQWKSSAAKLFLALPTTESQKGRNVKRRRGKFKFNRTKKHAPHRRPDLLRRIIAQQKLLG
The experiment can be described thus: co-IP; subunits expressed in Sf21 cells using Baculovirus; His-FLAG-Ada2b-PA with a single other subunit, tested for direct interaction; western blots with anti-Gcn5, anti-Ada3, anti-Sgf29, anti-FLAG.

The target in experiment [2] is Ada3 (Drosophila melanogaster). The experiment can be described thus: co-IP; subunits expressed in Sf21 cells using Baculovirus; His-FLAG-Ada2b-PA with Sgf29 in the presence of Ada3; western blots with anti-Gcn5, anti-Ada3, anti-Sgf29, anti-FLAG.

Turning to Ada3 (Drosophila melanogaster), the binding entry in experiment [1] is recorded as “binds”.

B1: Sgf29 (protein, UniProt Q9W2I4 1-289)
chain: MPLTAESAAQQIQDRLKDIQQNIHNVDEERRRAENSIASLVRSLHATNQKVKPLLKASLTEAAQEEATIRAALAKIHEIRSIRNERRIQARNAGNKEAIRRGALMKMVQLSAQTLPLFVGKLGERAPALCGAIPAEGNYVAKVGDNVAALAKGIDEEENWILAEVVQFLHRQNKYDVIDIDEEQKDRHVLSKRKVIPLPLMRANPETDGHALFPKDTVVMALYPQTTCFYKAIVHRLPQTATEDYEVLFEDSSYTNGYAEPLPVAQRYVIAYRPTKKGAGSGSGNLSSA
B1: the binding result in experiment [2] is “binds”.
